Source: PMC7585118
These are yes or no findings as the source states them, for the method shown. In cells and extracts the contact can be indirect. Some entries that bind do so weakly or less than the wild type.

By UniProt entry, the sequences of proteins in these tests, tags left out.
UniProt Q96P20: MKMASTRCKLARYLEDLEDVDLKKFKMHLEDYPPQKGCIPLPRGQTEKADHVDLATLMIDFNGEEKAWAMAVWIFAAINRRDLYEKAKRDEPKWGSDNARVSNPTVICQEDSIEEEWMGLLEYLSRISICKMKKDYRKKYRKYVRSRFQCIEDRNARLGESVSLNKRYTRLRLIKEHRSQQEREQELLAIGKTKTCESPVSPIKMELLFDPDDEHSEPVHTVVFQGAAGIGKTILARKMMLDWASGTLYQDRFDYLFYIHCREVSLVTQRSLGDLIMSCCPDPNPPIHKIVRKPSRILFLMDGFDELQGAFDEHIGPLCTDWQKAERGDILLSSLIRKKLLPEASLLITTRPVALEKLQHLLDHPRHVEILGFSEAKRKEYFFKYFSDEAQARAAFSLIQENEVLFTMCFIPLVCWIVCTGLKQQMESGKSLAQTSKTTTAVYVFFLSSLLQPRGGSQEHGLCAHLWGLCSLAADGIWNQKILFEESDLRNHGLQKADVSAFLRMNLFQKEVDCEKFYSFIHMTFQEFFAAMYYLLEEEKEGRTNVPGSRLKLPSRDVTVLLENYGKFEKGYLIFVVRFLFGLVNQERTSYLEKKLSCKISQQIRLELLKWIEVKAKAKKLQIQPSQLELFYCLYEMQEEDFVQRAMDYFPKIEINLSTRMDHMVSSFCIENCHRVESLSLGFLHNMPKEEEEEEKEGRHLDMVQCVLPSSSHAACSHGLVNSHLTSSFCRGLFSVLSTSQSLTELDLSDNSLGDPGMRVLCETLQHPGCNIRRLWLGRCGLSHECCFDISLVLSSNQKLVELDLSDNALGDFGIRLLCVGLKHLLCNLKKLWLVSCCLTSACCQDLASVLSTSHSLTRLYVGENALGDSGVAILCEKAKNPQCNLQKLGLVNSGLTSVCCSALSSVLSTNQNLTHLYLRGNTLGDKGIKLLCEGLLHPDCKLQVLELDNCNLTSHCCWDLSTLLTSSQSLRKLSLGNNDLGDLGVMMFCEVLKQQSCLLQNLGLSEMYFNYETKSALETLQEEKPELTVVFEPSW

Target: NLRP3 (human (endogenous in THP-1)) (UniProt Q96P20)
Assay: co-IP; endogenous proteins in THP-1 cells primed with LPS 4 h and stimulated with ATP 30 min (with or without GPA 6 h before ATP); cells lysed in IP buffer, IP-grade antibodies, protein A/G beads, immunoblot

binding: binds
B1: GSDMD (protein, UniProt P57764 1-484)
chain: MGSAFERVVRRVVQELDHGGEFIPVTSLQSSTGFQPYCLVVRKPSSSWFWKPRYKCVNLSIKDILEPDAAEPDVQRGRSFHFYDAMDGQIQGSVELAAPGQAKIAGGAAVSDSSSTSMNVYSLSVDPNTWQTLLHERHLRQPEHKVLQQLRSRGDNVYVVTEVLQTQKEVEVTRTHKREGSGRFSLPGATCLQGEGQGHLSQKKTVTIPSGSTLAFRVAQLVIDSDLDVLLFPDKKQRTFQPPATGHKRSTSEGAWPQLPSGLSMMRCLHNFLTDGVPAEGAFTEDFQGLRAEVETISKELELLDRELCQLLLEGLEGVLRDQLALRALEEALEQGQSLGPVEPLDGPAGAVLECLVLSSGMLVPELAIPVVYLLGALTMLSETQHKLLAEALESQTLLGPLELVGSLLEQSAPWQERSTMSLPPGLLGNSWGEGAPAWVLLDECGLELGEDTPHVCWEPQAQGRMCALYASLALLSGLSQEPH
